# According to patent publication US20050191261A1, “Process for strengthening hair and improving the compatibility of a treatment for waving the hair with another subsequent cosmetic treatment comprising applying derivatives of 2-iminothiolane” (priority 2004, published 2005):
# Tests used:
# [1] = Efficacy and durability of waving: length of the loop of curled locks after relaxation at controlled humidity; details: for Length of the lock initially: t=0, 80% relative humidity, 2-iminothiolane HCl 1% by weight, pH 7.4, 50° C., 2 hours, thioglycolic acid 1 mol/L, pH 8.5, 30° C., 15 minutes, then H2O2 fixation; for Length of the lock initially / Length of the lock at t = 30 min / Length of the lock at t = 1 h: 25° C.; for Length of the lock at t = 30 min: t=30 minutes at 80% relative humidity; for Length of the lock at t = 30 min / Length of the lock at t = 1 h: same treatments as E1; for Length of the lock at t = 1 h: t=1 hour at 80% relative humidity
# [2] = Compatibility of waving with subsequent coloration by oxidation: uptake of the color (spectrocolorimeter, L*a*b); details: coloration with L'OREAL Professionnel Crescendo 7.44, 30 minutes at 30° C., on locks treated as in Example 1; ΔE*ab
smiles,measurement,setting,value
"Cl.N=C1CCCS1 [2-iminothiolane HCl, :-dihydro-thiophen-2-ylideneamine hydrochloride]",Length of the lock initially,[1],7.5 mm
same,Length of the lock at t = 30 min,[1],12.5 mm
same,Length of the lock at t = 1 h,[1],14 mm
same,Waving effect of the treatment (in words),[1]; treatment at neutral pH followed by fixation,leads to permanent waving
same,Uptake of the color (ΔE),[2],23.9 +/− 1.4
"O=C(O)CS [thioglycolic acid, reference compound]",Length of the lock initially,[1],7 mm
same,Length of the lock at t = 30 min,[1],9.5 mm
same,Length of the lock at t = 1 h,[1],12.5 mm
same,Uptake of the color (ΔE),[2],29.0 +/− 0.5
